Source: patent US20160046678A1 (ZYNGENIA, published 2016)
These are yes or no findings as the source states them, for the method shown. Some results given as binding are weak or reduced against the parent protein; the word gives no strength.

Chains of the proteins cited; added tags and fusions are not shown. Residues count along the entry.
UniProt P21860, residues 20-643: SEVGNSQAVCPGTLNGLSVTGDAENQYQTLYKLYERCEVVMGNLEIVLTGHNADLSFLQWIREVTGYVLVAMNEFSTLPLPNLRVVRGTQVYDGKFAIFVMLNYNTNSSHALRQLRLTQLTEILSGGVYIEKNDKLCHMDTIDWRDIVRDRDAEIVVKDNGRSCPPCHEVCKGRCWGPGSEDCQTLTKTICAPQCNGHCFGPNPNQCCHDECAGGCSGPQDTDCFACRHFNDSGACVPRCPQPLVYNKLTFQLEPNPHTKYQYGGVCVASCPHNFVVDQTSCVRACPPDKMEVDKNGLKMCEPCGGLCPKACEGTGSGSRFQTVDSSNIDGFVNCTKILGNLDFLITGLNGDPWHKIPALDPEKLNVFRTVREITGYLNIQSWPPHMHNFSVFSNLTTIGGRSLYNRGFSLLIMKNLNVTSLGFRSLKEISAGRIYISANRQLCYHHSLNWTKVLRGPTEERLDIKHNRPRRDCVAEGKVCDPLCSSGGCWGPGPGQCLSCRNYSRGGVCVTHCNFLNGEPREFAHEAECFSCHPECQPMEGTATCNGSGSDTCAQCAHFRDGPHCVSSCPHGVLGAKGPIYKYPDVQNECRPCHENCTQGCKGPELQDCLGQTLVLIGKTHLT

Each binder was assayed against ErbB3 (UniProt P21860) (assay: MRD screen, Example 48).

Row | Binder | binding
1 | SQAYCPFQNPIWWNHCMELI [EGC183] | binds
2 | KFFLCQVYPSEKWHVCIERL [EGC197] | binds
3 | RYQMCQVYPSGKWHVCMETI [EGC198] | binds
4 | LNYICWRWAHQVPWQCSLFQ [EGC251] | binds
5 | IYILCTNFKPVFWCVFST [EGC238] | binds
6 | KTGSCQAQKVFSWCAQWC [EGC253] | binds
7 | AVELCFHHTQEWTYCLWRF [EGC286] | binds
8 | WCTECMRRFPGHYCVAFC [EGC222] | binds
9 | KFFMCQVYPSLKWHVCMETL [EGC254] | binds
10 | HLFLCQVYPSEKWHVCVETL [EGC185] | binds
11 | WLNCGCVVITCIVEPR [EGC245] | binds
12 | WYEQCMKRHHPQAFCLRFN [EGC272] | binds
13 | QFMLCQVYPSKKWHVCVVPV [EGC264] | binds
14 | HLIMCQVYPSGKWHVCLATT [EGC285] | binds
15 | VEHLCSEIPFWNVQCLARF [EGC283] | binds
16 | RERTCVYFHKILHDFCPSRT [EGC267] | binds
17 | QFLMCQVYPSLKWHVCVETL [EGC263] | binds
18 | VEHLCSKIPFWHVQCLARI [EGC291] | binds
19 | SKVYCPFQNPIWWSHCMELI [EGC182] | binds
20 | RGRDCLRSFPGHYCVTFR [EGC250] | binds
21 | KFHMCQVYPSRNWHVWVETL [EGC281] | binds
22 | RFQMCKVYPSERWHVCVEIL [EGC199] | binds
23 | FKFTCYWAPYHTFCNTGQ [EGC268] | binds
24 | RAASCLDVFHCRRSWS [EGC234] | binds

Row | Binder | binding
25 | KFLMCQVYPSLKWHVCMETL [EGC259] | binds
26 | KFRMCQVYPSGKWHVCAETF [EGC186] | binds
27 | WGWRCYQSWSYQDCQYWY [EGC246] | binds
28 | PMVRCPFKNPVWYSHCLELL [EGC192] | binds
29 | CLSRCVDWVFSNCTSGR [EGC224] | binds
30 | KFMMCQVYPSQKWHVCVETF [EGC289] | binds
31 | KFFMCQVYPSLKWHVWMETL [EGC269] | binds
32 | DALRCFEWVKRNCLLSS [EGC288] | binds
33 | KFLMCQVYPSKKWHVCIETL [EGC273] | binds
34 | VEHLCSKIPFWHVQCLARF [EGC256] | binds
35 | WALACSWTPRWHQCIFSL [EGC226] | binds
36 | RGASCLDLFHWCHSWG [EGC237] | binds
37 | HVSICWGYTYCWQIF [EGC236] | binds
38 | ASYSCWWGPMYMECWTKV [EGC252] | binds
39 | KFFMCQIYPSEKWHVCVKLW [EGC178] | binds
40 | TREICPFQNPIWRSHCLKLV [EGC191] | binds
41 | TIIRCFWTFHMDFVCVTGV [EGC244] | binds
42 | GFFMCQVYPSEKWHVCLETL [EGC176] | binds
43 | RFFMCVDYPSIKWDVCPETI [EGC278] | binds
44 | KFYMCQVYPSVRWHVCVDTS [EGC189] | binds
45 | KFQMCQVYPSGNWHVCVETM [EGC266] | binds
46 | CLGSCMLKGFERWCIHGH [EGC276] | binds
47 | FLMLCHVSKYTIKCFSPL [EGC225] | binds

Continued, values first:

Row | binding | Binder
48 | binds | SSVVCVRGIHAWTCHFFV [EGC229]
49 | binds | GEQLCSKIPSSDALWWVRLL [EGC287]
50 | binds | LWIRCSLLQYSYYCSWVW [EGC239]
51 | binds | RAASCLDVFHWCHSWC [EGC223]
52 | binds | LTSSCVYVYNWCAVWA [EGC232]
53 | binds | LERLCMEIFYVHCSGSI [EGC227]
54 | binds | GFIMCQVYPSLKWHVCVETS [EGC177]
55 | binds | KFMMCQVYPSLKWHVCVETL [EGC255]
56 | binds | TFFMCQVYPSGKWHVCVGGL [EGC196]
57 | binds | SYLFCYTLYIDYNCWLWS [EGC242]
58 | binds | FLMLCRVSKYTIKCFSPL [EGC248]
59 | binds | YRHLCVWLMEQCETAR [EGC233]
60 | binds | PRWTCEWYQARQSCSLGQ [EGC280]
61 | binds | KFQCARFTLPETGMFVSKL [EGC270]
62 | binds | AASLCPFQNPIWLAHCMEMM [EGC181]
63 | binds | KFFMCVDYPSLKWDVCMETL [EGC277]
64 | binds | KFFLCQVYPSGKYHICVSTW [EGC187]
65 | binds | PGYRCVFQVNYQCGAAF [EGC243]
66 | binds | KLFLCQVYPSERWHVCVESL [EGC284]
67 | binds | GSCALKNRSKCARRG [EGC265]
68 | binds | SWRMCIEMFLTHDECVRFV [EGC228]
69 | binds | QFMLCQVYPSKKWHVCVVTV [EGC274]
